Patent publication US5344765A, “DNA encoding polypeptides with activity against gram-positive and gram-negative bacteria” (priority 1993, dated 1994)
Not every detail of the peptide structures is certain; ends, links or a residue may be inferred. Numbered stars: 1 amine (or outer) side, 2 acyl side, 3 side chain; on linkers, the order of the positions; unused ones are H or OH. Square brackets hold non-standard residues; d marks the D form. Peptide text beside a SMILES is read from it. * marks the point of attachment. Ethylenediamine = C(CN[*:2])N[*:1]; hSer(lactone) = O=C1OCC[C@@H]1N*; hSer = N[C@@H](CCO)C(=O)O

Legend:
B. megaterium = assay: halo (inhibition zone) agar assay of bactericidal activity; assay type: cell-based, Bacillus megaterium; details: for Relative activity: ratio of the radius of the cleared halo versus that for E. coli D21: B. megaterium, overnight incubation at 25° C.
Method: (§1) The assay for antimicrobial activity was performed by pouring 10 ml of agar in TYE media containing about 10^7 viable cells of the test organisms. Wells, 2 mm in diameter, were punched in the agar plates. Aliquots of the modified cecropin-like polypeptides (2-12 ul) were then added to each well. The diameter of the inhibition zones, or haloes, around the wells, were measured after overnight incubation at 25° C.
(§2) The activities of various cecropin-like polypeptides were tested against both Gram-negative and Gram-positive organisms. Anti-microbial activity against the Gram-negative organisms remained unaltered for most of the Gram-negative bacteria (except, i.e., Serratia marcescens) as shown in Table 1. […] To determine a standard of halo formation, the various modified cecropin-like polypeptides were also applied to E. coli D21. Activity shown in Tables 1 and 2 is expressed as the ratio of the radius of the cleared halo for each organism versus that for E. coli D21.
(§3) The cecropin-like polypeptide modified at the carboxy terminus with ehtylenediamine and naturally occurring cecropin A were tested against a variety of organisms. The relative activities of the antimicrobial agents were expressed per nanomole of polypeptide applied to each well (Table 3).

S. faecalis = assay: as above; assay type: cell-based, Streptococcus faecalis; details: for Relative activity: ratio of the radius of the cleared halo versus that for E. coli D21: S. faecalis, overnight incubation at 25° C.
Method: as §1, §2, §3

M. luteus = assay: as above; assay type: cell-based; details: Micrococcus luteus; per nanomole of polypeptide applied to well
Method: as §1, §2, §3

Escherichia coli = assay: halo assay, activity per nanomole; assay type: cell-based; details: per nanomole of polypeptide applied to well
Method: as §1, §3

Row | Compound | Relative activity: ratio of the radius of the cleared halo versus that for E. coli D21 (B. megaterium) | Relative activity: ratio of the radius of the cleared halo versus that for E. coli D21 (S. faecalis) | Activity per Nanomole (radius of the inhibitory ring) (M. luteus) [millimeters] | Activity per Nanomole (radius of the inhibitory ring) (B. megaterium; Bacillus megaterium, per nanomole of polypeptide applied to well) [millimeters] | Activity per Nanomole (radius of the inhibitory ring) (S. faecalis; Streptococcus faecalis, per nanomole of polypeptide applied to well) [millimeters] | Activity per Nanomole (radius of the inhibitory ring) (Escherichia coli) [millimeters]
1 | CC[C@H](C)[C@H](NC(=O)CNC(=O)[C@H](CC(=O)O)NC(=O)[C@H](CCCNC(=N)N)NC(=O)[C@@H](NC(=O)[C@H](CC(N)=O)NC(=O)[C@H](CCC(N)=O)NC(=O)CNC(=O)[C@@H](NC(=O)[C@H](CCCCN)NC(=O)[C@H](CCC(=O)O)NC(=O)[C@@H](NC(=O)[C@H](CCCCN)NC(=O)[C@H](CCCCN)NC(=O)[C@H](Cc1ccccc1)NC(=O)[C@H](CC(C)C)NC(=O)[C@H](CCCCN)NC(=O)[C@H](Cc1c[nH]c2ccccc12)NC(=O)[C@@H](N)CCCCN)[C@@H](C)CC)C(C)C)[C@@H](C)CC)C(=O)N[C@H](C(=O)N[C@@H](CCCCN)C(=O)N[C@@H](C)C(=O)NCC(=O)N1CCC[C@H]1C(=O)N[C@@H](C)C(=O)N[C@H](C(=O)N[C@@H](C)C(=O)N[C@H](C(=O)N[C@H](C(=O)NCC(=O)N[C@@H](CCC(N)=O)C(=O)N[C@@H](C)C(=O)N[C@H](C(=O)N[C@@H](CCC(N)=O)C(=O)N[C@H](C(=O)N[C@@H](C)C(=O)N[C@@H](CCCCN)C(=O)N[C@H]1CCOC1=O)[C@@H](C)CC)[C@@H](C)O)C(C)C)C(C)C)C(C)C)[C@@H](C)CC [CA--HS--LACTONE] (H-KWKLFKKIEKVGQNIRDGIIKAGPAVAVVGQATQIAK-{hSer(lactone)}) | 0.8 ± 0.1 | 0.1 ± 0.03 | – | – | – | –
2 | CC[C@H](C)[C@H](NC(=O)CNC(=O)[C@H](CC(=O)O)NC(=O)[C@H](CCCNC(=N)N)NC(=O)[C@@H](NC(=O)[C@H](CC(N)=O)NC(=O)[C@H](CCC(N)=O)NC(=O)CNC(=O)[C@@H](NC(=O)[C@H](CCCCN)NC(=O)[C@H](CCC(=O)O)NC(=O)[C@@H](NC(=O)[C@H](CCCCN)NC(=O)[C@H](CCCCN)NC(=O)[C@H](Cc1ccccc1)NC(=O)[C@H](CC(C)C)NC(=O)[C@H](CCCCN)NC(=O)[C@H](Cc1c[nH]c2ccccc12)NC(=O)[C@@H](N)CCCCN)[C@@H](C)CC)C(C)C)[C@@H](C)CC)C(=O)N[C@H](C(=O)N[C@@H](CCCCN)C(=O)N[C@@H](C)C(=O)NCC(=O)N1CCC[C@H]1C(=O)N[C@@H](C)C(=O)N[C@H](C(=O)N[C@@H](C)C(=O)N[C@H](C(=O)N[C@H](C(=O)NCC(=O)N[C@@H](CCC(N)=O)C(=O)N[C@@H](C)C(=O)N[C@H](C(=O)N[C@@H](CCC(N)=O)C(=O)N[C@H](C(=O)N[C@@H](C)C(=O)N[C@@H](CCCCN)C(=O)N[C@@H](CCO)C(=O)NCCN)[C@@H](C)CC)[C@@H](C)O)C(C)C)C(C)C)C(C)C)[C@@H](C)CC [CA--HS--NH--Et--NH2] (H-KWKLFKKIEKVGQNIRDGIIKAGPAVAVVGQATQIAK[hSer]-Ethylenediamine) | 0.7 ± 0.05 | 0.35 ± 0.1 | 12.0 | 6.9 | 1.2 | 9.8
